Results: the supplement of paper PMC9549374
The other results are listed elsewhere or left out. Rule as the data show it: active = 2-fold of DMSO or more and inactive = the rest. Single values of this set are uncertain. Some low values are a fixed figure set by the source, not a measured ratio.

System: CM7/1-hgem mouse ES cell-derived cardiomyocytes
Assay: maximal number of mAG-hGem(1/110)-positive cardiomyocytes over 96 h, fold-change vs DMSO; higher = more cardiomyocyte cell cycle activity
Conditions: 1 µM; 96 (max over 12 h time points) h

SMILES | maximal number
COc1ccc2[nH]c([S+]([O-])Cc3ncc(C)c(OC)c3C)nc2n1 (stereo not given) | inactive: 1
O=C1c2c(O)cccc2C([C@@H]2O[C@H](CO)[C@@H](O)[C@H](O)[C@H]2O)c2cc(CO)cc(O)c21 (stereo not given in full) | inactive: 1
Nc1nc(N)nc(-c2cc(Cl)ccc2Cl)n1 | inactive: 1
COc1ccc(O)cc1 | inactive: 0.5
COc1c(C)c2c(c(O)c1C/C=C(\C)CCC(=O)OCCN1CCOCC1)C(=O)OC2 | inactive: 1
O=NN(CCCl)C(=O)NC1CCCCC1 | inactive: 1
O=C(O[C@@H]1Cc2c(O)cc(O)cc2O[C@@H]1c1cc(O)c(O)c(O)c1)c1cc(O)c(O)c(O)c1 | inactive: 0
CC1(C)[C@H]2CC[C@]1(CS(=O)(=O)O)C(=O)C2=Cc1ccc(C=C2C(=O)[C@@]3(CS(=O)(=O)O)CC[C@@H]2C3(C)C)cc1 | inactive: 1
COc1ccc2cc([C@H](C)CO)ccc2c1 | inactive: 1
CC(=O)Oc1cccc(O)c1 | inactive: 1
CCS(=O)(=O)CCn1c([N+](=O)[O-])cnc1C | inactive: 1
COC(=O)C[C@H]1C(C)(C)C(=O)[C@@H]2CC3=C(CC[C@]4(C)C3=CC(=O)O[C@H]4c3ccoc3)[C@@]1(C)C2=O | inactive: 1
COc1c2occc2c(OC)c2c(=O)cc(C)oc12 | inactive: 1
N=c1ccn2c(n1)O[C@H]1[C@H](O)[C@@H](CO)O[C@H]12 | inactive: 1
COc1cc(O)c2c(=O)cc(C)oc2c1CC=C(C)C | inactive: 1
Cc1cn([C@H]2C[C@H](N=[N+]=[N-])[C@@H](CO)O2)c(=O)[nH]c1=O | inactive: 1
CC(=O)O[C@H]1CC[C@@]2(C)[C@H](CC[C@@H]3[C@@H]2CC[C@]2(C)[C@@H]4[C@H](C[C@@H]32)O[C@]2(CC[C@@H](C)CO2)[C@H]4C)C1 | inactive: 1
COc1ccc([C@H]2COc3c(ccc(O)c3OC)C2)c(OC)c1O | inactive: 1
COc1ccccc1-c1coc2cc(O)ccc2c1=O | inactive: 1
COC1=CC(=O)C=C(OC)C1=O | inactive: 1

SMILES | maximal number
Cc1cc(-c2ccccc2)nnc1NCCN1CCOCC1 | inactive: 0.5
O=C1CC2(CCCC2)CC(=O)N1CCCCN1CCN(c2ncccn2)CC1 | inactive: 1
c1ccc2c(Cc3c[nH]c4ccccc34)c[nH]c2c1 | inactive: 1
O=C(O)c1cc(/N=N/c2ccc(O)c(C(=O)O)c2)ccc1O | inactive: 1
Cc1cccc(C(=O)O)c1O | inactive: 1
O=c1c(-c2ccc(O)cc2)coc2cc(O)cc(O)c12 | inactive: 1
C[C@H](Cn1cnc2c(N)ncnc21)OCP(=O)(O)O | inactive: 1
CC(C(=O)O)[C@H]1CCC2C3CC=C4C[C@@H](O)CC[C@]4(C)C3CC[C@@]21C (stereo partly drawn) [3beta-HYDROXY-23,24-BISNORCHOL-5-ENIC ACID] | inactive: 1
C#C[C@]1(O)CC[C@H]2[C@@H]3CCc4cc(OC5CCCC5)ccc4[C@H]3CC[C@@]21C | inactive: 1
COc1ccc(-c2cc(=O)c3c(OC(C)=O)cc(OC(C)=O)cc3o2)cc1 | inactive: 1
O=C(O)c1cc(O)c2c(c1)[C@H]([C@H]1c3cc(C(=O)O)cc(O)c3C(=O)c3c(O[C@@H]4O[C@H](CO)[C@@H](O)[C@H](O)[C@H]4O)cccc31)c1cccc(O[C@@H]3O[C@H](CO)[C@@H](O)[C@H](O)[C@H]3O)c1C2=O | inactive: 1
CC(C)=CCC[C@@H](C)[C@@H]1CC[C@]2(C)C3=C(CC[C@@]12C)[C@@]1(C)CC[C@H](O)C(C)(C)[C@@H]1CC3 | inactive: 1
Cn1c(=O)[nH]c2ncn(C)c2c1=O | inactive: 1
O=c1[nH]c(=O)n([C@H]2C[C@H](O)[C@@H](CO)O2)cc1I | inactive: 1
COC1=CC(=O)C(C(=O)c2ccccc2)=CC1=O | inactive: 1
COC(=O)/C(=C1/OC(=O)C(c2ccccc2)=C1O)c1ccccc1 | inactive: 1
CC1=C(C)C(=O)C(C(CCCCCC(=O)O)c2ccccc2)=C(C)C1=O (stereo not given) | inactive: 1
CC(=O)CC(c1ccc([N+](=O)[O-])cc1)c1c(O)c2ccccc2oc1=O (stereo not given) | inactive: 1
Clc1ccc2c(c1)C(N1CCNCC1)=Nc1ccccc1O2 | inactive: 1
CC(CCC(=O)O)[C@H]1CCC2C3C[C@H](O)[C@@H]4C[C@H](O)CC[C@]4(C)C3CC[C@@]21C (stereo partly drawn) [alpha-HYDROXYDEOXYCHOLIC ACID] | inactive: 0

A draw from above in order of SMILES length, largest number first:
SMILES | maximal number
CC(C)=CCC[C@@H](C)[C@@H]1CC[C@]2(C)C3=C(CC[C@@]12C)[C@@]1(C)CC[C@H](O)C(C)(C)[C@@H]1CC3 | inactive: 1
C#C[C@]1(O)CC[C@H]2[C@@H]3CCc4cc(OC5CCCC5)ccc4[C@H]3CC[C@@]21C | inactive: 1
CC(=O)CC(c1ccc([N+](=O)[O-])cc1)c1c(O)c2ccccc2oc1=O (stereo not given) | inactive: 1
O=C1CC2(CCCC2)CC(=O)N1CCCCN1CCN(c2ncccn2)CC1 | inactive: 1
Clc1ccc2c(c1)C(N1CCNCC1)=Nc1ccccc1O2 | inactive: 1
c1ccc2c(Cc3c[nH]c4ccccc34)c[nH]c2c1 | inactive: 1
Cc1cc(-c2ccccc2)nnc1NCCN1CCOCC1 | inactive: 0.5
Cn1c(=O)[nH]c2ncn(C)c2c1=O | inactive: 1
